{"sequences": {"note": "By UniProt entry, the sequences of proteins in these tests, tags left out. Residues count along the entry.", "UniProt Q00960, residues 27-1482": "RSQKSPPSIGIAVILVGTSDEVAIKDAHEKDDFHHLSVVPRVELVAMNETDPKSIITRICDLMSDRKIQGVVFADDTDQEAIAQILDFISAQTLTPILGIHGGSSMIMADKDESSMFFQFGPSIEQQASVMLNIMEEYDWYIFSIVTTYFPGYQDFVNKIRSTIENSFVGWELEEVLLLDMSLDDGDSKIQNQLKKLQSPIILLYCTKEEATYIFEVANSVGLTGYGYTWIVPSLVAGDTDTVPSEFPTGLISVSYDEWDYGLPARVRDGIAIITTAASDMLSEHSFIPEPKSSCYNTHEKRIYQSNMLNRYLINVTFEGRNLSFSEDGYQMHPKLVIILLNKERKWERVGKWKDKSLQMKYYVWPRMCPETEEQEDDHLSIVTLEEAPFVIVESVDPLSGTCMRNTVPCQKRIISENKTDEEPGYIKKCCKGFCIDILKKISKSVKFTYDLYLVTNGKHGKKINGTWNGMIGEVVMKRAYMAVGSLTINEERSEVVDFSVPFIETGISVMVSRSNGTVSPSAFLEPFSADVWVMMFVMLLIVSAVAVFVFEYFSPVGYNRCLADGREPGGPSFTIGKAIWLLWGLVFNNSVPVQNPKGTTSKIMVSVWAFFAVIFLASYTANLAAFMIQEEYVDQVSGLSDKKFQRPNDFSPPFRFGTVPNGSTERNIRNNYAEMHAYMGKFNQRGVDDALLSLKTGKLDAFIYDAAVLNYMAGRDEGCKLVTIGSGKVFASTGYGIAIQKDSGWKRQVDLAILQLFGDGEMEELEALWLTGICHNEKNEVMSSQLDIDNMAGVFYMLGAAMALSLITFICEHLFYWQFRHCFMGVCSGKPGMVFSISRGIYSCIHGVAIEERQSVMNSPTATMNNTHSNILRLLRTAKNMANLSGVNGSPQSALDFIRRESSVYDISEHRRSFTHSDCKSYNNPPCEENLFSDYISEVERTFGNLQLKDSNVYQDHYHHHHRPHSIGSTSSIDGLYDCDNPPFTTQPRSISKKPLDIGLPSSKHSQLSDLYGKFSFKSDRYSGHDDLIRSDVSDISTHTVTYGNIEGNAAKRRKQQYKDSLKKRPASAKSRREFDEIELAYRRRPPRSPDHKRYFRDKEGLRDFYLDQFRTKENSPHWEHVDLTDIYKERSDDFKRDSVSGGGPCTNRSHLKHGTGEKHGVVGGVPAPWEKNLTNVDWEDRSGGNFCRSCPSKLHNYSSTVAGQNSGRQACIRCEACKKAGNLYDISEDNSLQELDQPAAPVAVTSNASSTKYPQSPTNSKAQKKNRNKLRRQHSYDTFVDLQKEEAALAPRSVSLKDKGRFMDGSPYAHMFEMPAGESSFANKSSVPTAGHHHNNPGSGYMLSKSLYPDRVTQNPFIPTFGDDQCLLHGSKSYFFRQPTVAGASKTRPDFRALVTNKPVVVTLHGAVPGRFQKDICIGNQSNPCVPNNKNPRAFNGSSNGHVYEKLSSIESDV"}, "source": "paper PMC10919877", "target": "T1, FAM81A-FLAG (full-length mouse FAM81A with 3xFLAG) (mouse) (UniProt Q3UXZ6)", "T1 sequence": "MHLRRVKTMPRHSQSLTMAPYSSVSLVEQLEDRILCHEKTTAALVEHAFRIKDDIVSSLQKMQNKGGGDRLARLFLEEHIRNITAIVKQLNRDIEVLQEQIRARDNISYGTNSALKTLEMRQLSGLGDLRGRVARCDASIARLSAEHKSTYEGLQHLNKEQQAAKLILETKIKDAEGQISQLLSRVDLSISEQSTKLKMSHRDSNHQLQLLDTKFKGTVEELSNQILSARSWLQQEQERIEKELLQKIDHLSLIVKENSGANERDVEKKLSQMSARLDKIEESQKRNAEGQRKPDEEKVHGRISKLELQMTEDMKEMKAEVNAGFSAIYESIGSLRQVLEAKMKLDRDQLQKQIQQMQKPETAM", "experiment": "co-IP; HEK293T cells co-transfected with FLAG-tagged FAM81A (or mutant) and a GFP-tagged partner, lysed 24 h later in 1% Triton X-100, 50 mM Tris-HCl pH 7.4, 150 mM NaCl, 1 mM EDTA; ANTI-FLAG M2 Affinity Gel, 90 min at 4°C; blots with anti-GFP and anti-FLAG", "note": "Results are given in words; binding and its absence hold for the method and conditions named. In cells and extracts the contact can be indirect. Some entries that bind do so weakly or less than the wild type. Tags and fused reporters may be left off the sequences shown.", "data": [{"substance": "GFP-GluN2B (pCI-EGFP-NR2b wt) (from UniProt Q00960 27-1482) (receptor)", "values": [{"measurement": "binding", "value": "binds"}]}]}
